One compound from patent publication US20190374563A1, “TREATMENT OF KLEBSIELLA PNEUMONIAE INFECTIONS WITH ANTIBACTERIAL AMINOGLYCOSIDE COMPOUNDS” (Achaogen, Inc., priority 2009, published 2019) can be followed below.

The test system of this assay is S. aureus ATCC 33591 (MRSA). As to the kind of experiment: MIC of strains used in the thigh model. The following applies: Staphylococcus aureus. Format: cell-based.

Structures are written as SMILES.

For orientation: MIC means the least concentration at which growth counts as inhibited. As for `CN[C@H](CC(C)C)C(=O)N[C@H]1C(=O)N[C@@H](CC(N)=O)C(=O)N[C@H]2C(=O)N[C@H]3C(=O)N[C@H](C(=O)N[C@H](C(=O)O)c4cc(O)cc(O)c4-c4cc3ccc4O)[C@H](O)c3ccc(c(Cl)c3)Oc3cc2cc(c3O[C@@H]2O[C@H](CO)[C@@H](O)[C@H](O)[C@H]2O[C@H]2C[C@](C)(N)[C@H](O)[C@H](C)O2)Oc2ccc(cc2Cl)[C@H]1O` [VAN, vancomycin], the minimum inhibitory concentration (MIC) came out at 1 µg/mL.
